Measured values: PMC8206348

Chains of the proteins cited; added tags and fusions are not shown. Lines headed by an entry give the natural chain unless they say otherwise; changes in a name come on top.
UniProt Q9Y5U2: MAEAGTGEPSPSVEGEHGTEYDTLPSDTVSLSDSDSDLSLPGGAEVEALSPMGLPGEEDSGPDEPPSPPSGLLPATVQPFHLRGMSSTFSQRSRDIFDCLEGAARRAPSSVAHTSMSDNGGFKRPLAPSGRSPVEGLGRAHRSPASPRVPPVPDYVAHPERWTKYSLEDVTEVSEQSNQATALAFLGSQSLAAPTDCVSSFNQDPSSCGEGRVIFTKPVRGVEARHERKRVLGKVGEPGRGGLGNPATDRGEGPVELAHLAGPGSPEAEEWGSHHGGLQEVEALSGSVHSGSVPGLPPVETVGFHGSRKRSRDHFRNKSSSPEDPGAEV
UniProt O75643: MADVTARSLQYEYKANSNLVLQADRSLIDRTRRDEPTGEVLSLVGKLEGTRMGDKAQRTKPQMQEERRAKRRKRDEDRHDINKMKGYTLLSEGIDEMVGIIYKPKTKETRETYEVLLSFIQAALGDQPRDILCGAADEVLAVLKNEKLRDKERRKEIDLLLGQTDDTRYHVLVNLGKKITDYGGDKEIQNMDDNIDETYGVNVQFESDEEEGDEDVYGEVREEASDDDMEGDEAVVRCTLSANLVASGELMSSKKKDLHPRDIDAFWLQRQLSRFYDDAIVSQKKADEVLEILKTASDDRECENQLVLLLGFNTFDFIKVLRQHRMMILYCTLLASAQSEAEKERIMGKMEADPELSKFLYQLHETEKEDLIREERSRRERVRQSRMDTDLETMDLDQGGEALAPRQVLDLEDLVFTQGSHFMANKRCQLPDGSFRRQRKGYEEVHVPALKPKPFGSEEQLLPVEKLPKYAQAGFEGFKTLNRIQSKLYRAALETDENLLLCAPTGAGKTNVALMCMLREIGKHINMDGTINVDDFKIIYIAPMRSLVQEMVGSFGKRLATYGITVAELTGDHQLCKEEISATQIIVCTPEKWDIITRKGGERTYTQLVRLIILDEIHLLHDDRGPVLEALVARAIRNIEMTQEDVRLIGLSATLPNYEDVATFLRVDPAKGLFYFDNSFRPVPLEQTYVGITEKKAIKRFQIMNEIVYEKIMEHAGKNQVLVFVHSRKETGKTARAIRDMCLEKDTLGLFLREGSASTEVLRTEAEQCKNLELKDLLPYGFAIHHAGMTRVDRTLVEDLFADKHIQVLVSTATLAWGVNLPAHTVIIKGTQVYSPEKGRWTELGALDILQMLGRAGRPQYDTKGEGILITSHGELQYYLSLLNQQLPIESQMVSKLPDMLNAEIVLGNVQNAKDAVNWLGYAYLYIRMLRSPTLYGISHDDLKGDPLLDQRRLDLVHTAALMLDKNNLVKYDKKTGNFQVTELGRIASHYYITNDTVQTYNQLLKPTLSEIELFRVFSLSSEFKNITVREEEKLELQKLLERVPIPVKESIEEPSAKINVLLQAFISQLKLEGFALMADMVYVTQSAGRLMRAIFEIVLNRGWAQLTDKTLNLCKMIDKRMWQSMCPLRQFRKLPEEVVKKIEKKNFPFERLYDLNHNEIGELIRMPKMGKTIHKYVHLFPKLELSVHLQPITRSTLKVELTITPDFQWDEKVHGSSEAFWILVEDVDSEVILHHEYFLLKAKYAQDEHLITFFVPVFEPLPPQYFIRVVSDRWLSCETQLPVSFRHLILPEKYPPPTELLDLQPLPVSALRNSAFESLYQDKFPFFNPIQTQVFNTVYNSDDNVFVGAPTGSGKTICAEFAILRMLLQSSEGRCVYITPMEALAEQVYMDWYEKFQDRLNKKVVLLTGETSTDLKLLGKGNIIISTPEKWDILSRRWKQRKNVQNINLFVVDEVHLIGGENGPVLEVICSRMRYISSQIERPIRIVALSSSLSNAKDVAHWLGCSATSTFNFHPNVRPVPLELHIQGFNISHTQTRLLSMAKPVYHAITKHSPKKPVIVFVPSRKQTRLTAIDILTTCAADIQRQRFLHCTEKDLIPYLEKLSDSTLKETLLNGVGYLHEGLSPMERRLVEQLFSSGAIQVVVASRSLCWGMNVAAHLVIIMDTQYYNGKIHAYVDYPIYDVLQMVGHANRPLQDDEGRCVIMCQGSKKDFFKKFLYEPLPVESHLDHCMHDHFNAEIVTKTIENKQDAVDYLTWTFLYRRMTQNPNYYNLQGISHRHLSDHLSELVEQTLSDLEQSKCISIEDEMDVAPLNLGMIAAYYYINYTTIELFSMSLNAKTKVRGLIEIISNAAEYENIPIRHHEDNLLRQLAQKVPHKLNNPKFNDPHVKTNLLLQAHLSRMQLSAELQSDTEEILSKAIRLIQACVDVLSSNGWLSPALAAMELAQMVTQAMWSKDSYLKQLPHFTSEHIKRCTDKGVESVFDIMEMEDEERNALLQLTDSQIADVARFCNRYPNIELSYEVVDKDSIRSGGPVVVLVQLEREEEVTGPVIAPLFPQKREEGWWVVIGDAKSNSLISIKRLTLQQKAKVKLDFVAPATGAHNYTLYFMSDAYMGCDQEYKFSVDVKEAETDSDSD

Target: TSSC4 ΔHom2ΔHom3-GFP (human) (UniProt Q9Y5U2)
Assay: co-IP; anti-GFP or anti-FLAG antibodies pre-bound to agarose beads, overnight at 4 °C; lysates of transfected HeLa cells in NET2 buffer (50 mM Tris-HCl pH 7.4, 150 mM NaCl, 0.05% Nonidet P-40); western blot; also from RNase A treated lysates (Fig. 1d)

binding: binds
Substance: SNRNP200 (from UniProt O75643 1-2136)

No constants are given. Whether binding was seen depends on the method and setting. Binding seen in cells or lysates may run through a third protein. A result given as binding can be weak or reduced; the word gives no strength.
